Experiment: Light-induced click conjugation with Cbz-Lys-OMe monitored by LC-MS
Details: for Click reaction with Cbz-Lys-OMe under light activation (LC–MS): Hepes buffer, irradiation 365 nm, 16 W, 0-4 h
Experimental: To investigate the feasibility of the covalent inhibitor design, we first investigated the reactivity of NBA-ZG-2291 with Cbz-Lys-OMe, i.e. a diprotected lysine residue, under 365 nm light-mediated activation in the buffer (Figure A). Liquid chromatography–mass spectrometry (LC–MS) experiments were conducted to monitor the formation of the potential indazolone product. The reaction proceeded smoothly upon light activation (365 nm, 16 W). […] The product was identified as 3 by mass spectrometric analysis (Figure S2). After 2 h of light exposure, the reaction reached saturation with a yield of ∼90% (Figure C). NBA-ZG-2291 and Cbz-Lys-OMe in the buffer can undergo an aldehyde-amine ligation-like coupling reaction under UV irradiation. The reaction begins with the photolysis of o-NBA rapidly generating o-nitroso benzaldehyde. The primary amine of Cbz-Lys-OMe undergoes condensation with o-nitroso benzaldehyde, leading to subsequent formation of the indazolone product (Figure S3).
2 Light-induced click conjugation between NBA-ZG-2291 (500 μM) and Cbz-Lys-OMe (lysine residue, 2 mM). (A) Light-induced click conjugation of primary amine 2 with o-NBA derivate 1. (B) Peaks for the conjugated product (3) increased after light activation. (C) The reaction proceeded efficiently after light activation. TEXT PRINTED IN THE PICTURE: (A) NBA-ZG-2291 (1): MW1 = 414 | (A) Cbz-Lys-OMe (2): MW2 = 294 | (A) Product (3): MW3 = 672 = MW1 + 378
Based on the proposed mechanism, we designed and synthesized two control compounds lacking the para-hydroxy methyl group (Neg-1, Table S1, Figure A) or the meta-nitro group (Neg-2, Table S2, Figure A) compared to NBA-ZG-2291.

Compound	Yield of indazolone product in light-induced click conjugation (500 μM compound, 2 mM Cbz-Lys-OMe, buffer, 2 h light exposure (365 nm, 16 W))	Click reaction with Cbz-Lys-OMe under light activation (LC–MS)
O=C(O)CNC(=O)c1ncc(-c2cc(-c3ccc(CO)c([N+](=O)[O-])c3)no2)cc1O [NBA-ZG-2291]	~90%	–
O=C(O)CNC(=O)c1ncc(-c2cc(-c3ccc(CO)cc3)no2)cc1O [Neg-2]	–	neither of the control compounds undergoes click reaction
O=C(O)CNC(=O)c1ncc(-c2cc(-c3cccc([N+](=O)[O-])c3)no2)cc1O [Neg-1]	–	neither of the control compounds undergoes click reaction

From PMC12123601, “Light-Induced, Lysine-Targeting Irreversible Covalent Inhibition of the Human Oxygen Sensing Hydroxylase Factor Inhibiting HIF (FIH)” (Journal of the American Chemical Society, 2025)
